{
  "source": "patent US10363230B2",
  "about": "“6-shogaol derivatives and activities thereof” (North Carolina Agricultural and Technical State University, priority 2017, dated 2019)",
  "assay": "Chemical reactivity with L-cysteine in vitro",
  "settings": "for Michael addition reaction with L-cysteine: slightly basic condition, in vitro",
  "data": [
    {"compound": "CCCCC/C=C/C(=O)/C=C/c1ccc(O)c(OC)c1", "note": "[Compound 18]", "values": [
      {"measurement": "Michael addition reaction with L-cysteine", "value": "occurred immediately"}
    ]},
    {"compound": "CCCCCCCC(=O)CCc1ccc(O)c(O)c1", "note": "[Compound 25]", "values": [
      {"measurement": "Reaction with L-cysteine under oxidative environments", "setting": "IBX", "value": "efficiently produced cysteine conjugate 37"},
      {"measurement": "Michael addition reaction with L-cysteine", "value": "no Michael addition took place"},
      {"measurement": "Reaction with L-cysteine by tyrosinase", "setting": "tyrosinase from mushroom in PBS", "value": "generated cysteine conjugate 37"}
    ]},
    {"compound": "CCCCCCCC(=O)/C=C/c1ccc(O)c(O)c1", "note": "[Compound 27]", "values": [
      {"measurement": "Michael addition reaction with L-cysteine", "value": "occurred immediately"}
    ]}
  ]
}
